The list shows a part of the results. Many values rest on one well or one pass, so single values are uncertain.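 Imaging used 1,536-well plates; nuclei positive for cleaved PARP by antibody were divided by total DNA-stained nuclei to yield the apoptosis fraction. Doses for screening kept most cells viable, and cell lines differ markedly in resting and induced cleaved-PARP levels.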
How the values were obtained:
Assay in all cases: cleaved PARP positive nuclei fraction relative to DMSO control; melanoma cells; higher = more apoptosis
Conditions in all cases: library dose: low library concentration; 72 h
501Mel = test system: 501Mel
A101D = test system: A101D
A2058 = test system: A2058
C32 = test system: C32
CBRC008 = test system: CBRC008 (line from a melanoma biopsy)
CBRC014 = test system: CBRC014 (line from a melanoma biopsy)
CBRC016 = test system: CBRC016 (line from a melanoma biopsy)
CBRC017 = test system: CBRC017 (line from a melanoma biopsy)

| Compound | cleaved PARP positive nuclei fraction (501Mel) [%] | cleaved PARP positive nuclei fraction (A101D) [%] | cleaved PARP positive nuclei fraction (A2058) [%] | cleaved PARP positive nuclei fraction (C32) [%] | cleaved PARP positive nuclei fraction (CBRC008) [%] | cleaved PARP positive nuclei fraction (CBRC014) [%] | cleaved PARP positive nuclei fraction (CBRC016) [%] | cleaved PARP positive nuclei fraction (CBRC017) [%] |
| --- | --- | --- | --- | --- | --- | --- | --- | --- |
| CNC(=O)c1cc(Oc2ccc(NC(=O)Nc3ccc(Cl)c(C(F)(F)F)c3)cc2)ccn1 [sorafenib] + C/C(O)=C(\C#N)C(=O)Nc1cc(Br)ccc1Br [LFM-A13] (first compound 0.4 µM, partner dose 2 µM) | 75.6 | 70.6 | 53.8 | 32.5 | 111 | 95.7 | 72 | 87.4 |
| CS(=O)(=O)c1ccc(C(=O)Nc2ccc(Cl)c(-c3ccccn3)c2)c(Cl)c1 [vismodegib] + Cc1cc(SCc2sc(-c3ccc(C(F)(F)F)c(F)c3)nc2C)ccc1OCC(=O)O [GW0742] (first compound 1 µM, partner dose 2 µM) | 73.8 | 14 | 77.9 | 45.6 | 113 | 43.7 | 132 | 105 |
| NC1(c2ccc(-c3nc4ccn5c(=O)[nH]nc5c4cc3-c3ccccc3)cc2)CCC1 + O=C(Oc1ccc([N+](=O)[O-])cc1)N1CCC(C(O)(c2ccc3c(c2)OCO3)c2ccc3c(c2)OCO3)CC1 [JZL184] (first compound 0.4 µM, partner dose 1 µM) | 75.1 | 82.3 | 75.8 | 105 | 93.3 | 91.7 | 38.2 | 183 |
| Cn1cc(C2=C(c3cn(C4CCN(Cc5ccccn5)CC4)c4ccccc34)C(=O)NC2=O)c2ccccc21 [Enzastaurin] + CC(C)CCN1c2nc(Nc3cc(F)c(O)c(F)c3)ncc2N(C)C(=O)C1C [BID1870] (first compound 0.8 µM, partner dose 0.2 µM) | 123 | 53.4 | 105 | 142 | 82.6 | 117 | 73.7 | 96 |
| C[C@@H](N)c1ccc(C(=O)Nc2ccnc3[nH]ccc23)cc1 + C/C(O)=C(\C#N)C(=O)Nc1cc(Br)ccc1Br [LFM-A13] (first compound 0.4 µM, partner dose 2 µM) | 52.2 | 22.8 | 173 | 74.5 | 89.7 | 134 | 37.6 | 100 |
| N.N.[Cl][Pt][Cl] [cisplatin] + COc1ccc2c(c1)CCC1C2CCC2(C)C(NCCCCCCN3C(=O)C=CC3=O)CCC12 [U73122] (first compound 1.6 µM, partner dose 0.4 µM) | 31.3 | 10.6 | 89.6 | 222 | 59.8 | 100 | 87.5 | 112 |
| CN1CCN(c2ccc3nc(-c4c(N)c5c(F)cccc5[nH]c4=O)[nH]c3c2)CC1 [Dovitinib] + C/C(O)=C(\C#N)C(=O)Nc1cc(Br)ccc1Br [LFM-A13] (first compound 0.1 µM, partner dose 2 µM) | 77.4 | 37.4 | 38.5 | 118 | 48.2 | 95 | 55.7 | 68.1 |
| C[C@@H](Oc1cc(-c2cnn(C3CCNCC3)c2)cnc1N)c1c(Cl)ccc(F)c1Cl [Crizotinib] + Cc1cc(SCc2sc(-c3ccc(C(F)(F)F)c(F)c3)nc2C)ccc1OCC(=O)O [GW0742] (first compound 0.2 µM, partner dose 2 µM) | 91.1 | 22.4 | 115 | 132 | 107 | 125 | 67.5 | 83.4 |
| OCc1c[nH]c2ccccc12 [Indole-3-carbinol] + O=C(Oc1ccc([N+](=O)[O-])cc1)N1CCC(C(O)(c2ccc3c(c2)OCO3)c2ccc3c(c2)OCO3)CC1 [JZL184] (first compound 0.8 µM, partner dose 1 µM) | 90.5 | 18.2 | 65.7 | 36.2 | 89.2 | 101 | 45.4 | 71.1 |
| CN(c1ncccc1CNc1nc(Nc2ccc3c(c2)CC(=O)N3)ncc1C(F)(F)F)S(C)(=O)=O + O=C(Oc1ccc([N+](=O)[O-])cc1)N1CCC(C(O)(c2ccc3c(c2)OCO3)c2ccc3c(c2)OCO3)CC1 [JZL184] (first compound 0.08 µM, partner dose 1 µM) | 158 | 36.4 | 96 | 339 | 69.9 | 101 | 44.5 | 87 |
| Cc1cn(-c2cc(NC(=O)c3ccc(C)c(Nc4nccc(-c5cccnc5)n4)c3)cc(C(F)(F)F)c2)cn1 [nilotinib] + C/C(O)=C(\C#N)C(=O)Nc1cc(Br)ccc1Br [LFM-A13] (first compound 0.2 µM, partner dose 2 µM) | 75.5 | 54.3 | 101 | 110 | 156 | 106 | 124 | 78.8 |
| NC1(c2ccc(-c3nc4ccn5c(=O)[nH]nc5c4cc3-c3ccccc3)cc2)CCC1 + Cc1cc(SCc2sc(-c3ccc(C(F)(F)F)c(F)c3)nc2C)ccc1OCC(=O)O [GW0742] (first compound 0.4 µM, partner dose 2 µM) | 216 | 52.8 | 63.4 | 64.3 | 54.2 | 81.7 | 206 | 75.6 |
| Cn1cc(C2=C(c3cn(C4CCN(Cc5ccccn5)CC4)c4ccccc34)C(=O)NC2=O)c2ccccc21 [Enzastaurin] + COc1cc2ncnc(Nc3ccc(Oc4ccccc4)cc3)c2cc1OC [SrcI1] (first compound 0.8 µM, partner dose 2 µM) | 72.1 | 28.4 | 44.6 | 38.9 | 145 | 172 | 41.4 | 106 |
| Nc1ccn([C@@H]2O[C@H](CO)[C@@H](O)C2(F)F)c(=O)n1 [gemcitabine] + O=C(Oc1ccc([N+](=O)[O-])cc1)N1CCC(C(O)(c2ccc3c(c2)OCO3)c2ccc3c(c2)OCO3)CC1 [JZL184] (first compound 0.0004 µM, partner dose 1 µM) | 78.7 | 19.7 | 63.3 | 70.4 | 91.4 | 141 | 107 | 120 |
| O=C(O)[C@@H]1[O][Sb](=[O])([O][Sb]2(=[O])[O][C@H]([C@H](O)CO)[C@H](O)[C@H](C(=O)O)[O]2)[O][C@H]([C@H](O)CO)[C@@H]1O (stereo partly specified) [stibogluconate] + C/C(O)=C(\C#N)C(=O)Nc1cc(Br)ccc1Br [LFM-A13] (first compound 2 µM, partner dose 2 µM) | 51.8 | 25.5 | 91.9 | 84.2 | 114 | 111 | 20.9 | 93.8 |
| C[C@]12O[C@H](C[C@]1(O)CO)n1c3ccccc3c3c4c(c5c6ccccc6n2c5c31)CNC4=O [Lestaurtinib] + c1cc(-c2cnn3cc(-c4ccc(OCCN5CCCCC5)cc4)cnc23)ccn1 [Dorsomorphin] (first compound 0.004 µM, partner dose 0.4 µM) | 43.3 | 22.3 | 62 | 63.5 | 112 | 97.4 | 37.7 | 95.4 |
| C[C@]12O[C@H](C[C@]1(O)CO)n1c3ccccc3c3c4c(c5c6ccccc6n2c5c31)CNC4=O [Lestaurtinib] + COc1cc(N2CCC(N3CCN(C)CC3)CC2)ccc1Nc1ncc(Cl)c(Nc2ccccc2S(=O)(=O)C(C)C)n1 [NVP-TAE684] (first compound 0.004 µM, partner dose 0.08 µM) | 216 | 33.7 | 51 | 184 | 52.1 | 93.2 | 57.1 | 77.7 |
| Cn1cc(C2=C(c3cn(C4CCN(Cc5ccccn5)CC4)c4ccccc34)C(=O)NC2=O)c2ccccc21 [Enzastaurin] + O=S(=O)(c1ccccc1)N(CC(F)(F)F)c1ccc(C(O)(C(F)(F)F)C(F)(F)F)cc1 [T0901317] (first compound 0.8 µM, partner dose 1.4 µM) | 205 | 14.5 | 241 | 258 | 38.1 | 122 | 75.2 | 95.4 |
| C[C@]12O[C@H](C[C@]1(O)CO)n1c3ccccc3c3c4c(c5c6ccccc6n2c5c31)CNC4=O [Lestaurtinib] + C/C(O)=C(\C#N)C(=O)Nc1cc(Br)ccc1Br [LFM-A13] (first compound 0.004 µM, partner dose 2 µM) | 24.7 | 39.9 | 220 | 38.3 | 80.4 | 96.2 | 42.5 | 274 |
| Cn1cc(C2=C(c3cn(C4CCN(Cc5ccccn5)CC4)c4ccccc34)C(=O)NC2=O)c2ccccc21 [Enzastaurin] + COc1ccc(-c2ccc3c(N4CCOCC4)nc(N4C[C@@H](C)O[C@@H](C)C4)nc3n2)cc1CO [KU0063794] (first compound 0.8 µM, partner dose 0.02 µM) | 70.6 | 28.1 | 41.6 | 169 | 107 | 137 | 55.4 | 81.1 |
| CC(=O)O[C@@]12CO[C@@H]1C[C@H](O)[C@@]1(C)C(=O)[C@H](O)C3=C(C)[C@@H](OC(=O)[C@H](O)[C@@H](NC(=O)OC(C)(C)C)c4ccccc4)C[C@@](O)([C@@H](OC(=O)c4ccccc4)[C@H]21)C3(C)C [Docetaxel] + C/C(O)=C(\C#N)C(=O)Nc1cc(Br)ccc1Br [LFM-A13] (first compound 0.0001 µM, partner dose 2 µM) | 82.9 | 32.1 | 2590 | 114 | 210 | 176 | 197 | 171 |
| COc1cc([C@@H]2c3cc4c(cc3[C@@H](O[C@@H]3O[C@@H]5CO[C@@H](C)O[C@H]5[C@H](O)[C@H]3O)[C@H]3COC(=O)[C@H]23)OCO4)cc(OC)c1O [etoposide] + O=C(Oc1ccc([N+](=O)[O-])cc1)N1CCC(C(O)(c2ccc3c(c2)OCO3)c2ccc3c(c2)OCO3)CC1 [JZL184] (first compound 0.02 µM, partner dose 1 µM) | 69.1 | 20.2 | 104 | 66.1 | 241 | 99.6 | 44.8 | 162 |
| CCCCCCCCCCCCCCCCCCOP(=O)([O-])OC1CC[N+](C)(C)CC1 [Perifosine] + C/C(O)=C(\C#N)C(=O)Nc1cc(Br)ccc1Br [LFM-A13] (first compound 0.4 µM, partner dose 2 µM) | 134 | 29.2 | 232 | 87.3 | 80.5 | 108 | 105 | 156 |
| CCN(CC)CCNC(=O)c1c(C)[nH]c(/C=C2\C(=O)Nc3ccc(F)cc32)c1C [sunitinib] + O=C(Oc1ccc([N+](=O)[O-])cc1)N1CCC(C(O)(c2ccc3c(c2)OCO3)c2ccc3c(c2)OCO3)CC1 [JZL184] (first compound 0.4 µM, partner dose 1 µM) | 78.2 | 73.1 | 45.2 | 39.8 | 160 | 89.5 | 67.6 | 102 |
| CS(=O)(=O)c1ccc(C(=O)Nc2ccc(Cl)c(-c3ccccn3)c2)c(Cl)c1 [vismodegib] + O=C(Oc1ccc([N+](=O)[O-])cc1)N1CCC(C(O)(c2ccc3c(c2)OCO3)c2ccc3c(c2)OCO3)CC1 [JZL184] (first compound 1 µM, partner dose 1 µM) | 64 | 32.5 | 38.6 | 160 | 160 | 101 | 111 | 278 |
| CS(=O)(=O)CCNCc1ccc(-c2ccc3ncnc(Nc4ccc(OCc5cccc(F)c5)c(Cl)c4)c3c2)o1 [lapatinib] + O=C(Oc1ccc([N+](=O)[O-])cc1)N1CCC(C(O)(c2ccc3c(c2)OCO3)c2ccc3c(c2)OCO3)CC1 [JZL184] (first compound 0.8 µM, partner dose 1 µM) | 30.7 | 45.7 | 74 | 35.5 | 167 | 99.7 | 60.1 | 61.2 |
| CC1(C)CCC(c2ccc(Cl)cc2)=C(CN2CCN(c3ccc(C(=O)NS(=O)(=O)c4ccc(N[C@H](CCN5CCOCC5)CSc5ccccc5)c(S(=O)(=O)C(F)(F)F)c4)cc3)CC2)C1 + Cc1cc(SCc2sc(-c3ccc(C(F)(F)F)c(F)c3)nc2C)ccc1OCC(=O)O [GW0742] (first compound 0.4 µM, partner dose 2 µM) | 98.3 | 50.3 | 57.4 | 299 | 857 | 713 | 549 | 344 |
